Where two headings read alike, the source gives them in different places. Results are given in words; binding and its absence hold for the method and conditions named. In cells and extracts the contact can be indirect. Some results given as binding are weak or reduced against the parent protein; the word gives no strength.
Assays:
Assay in all cases: co-IP
[1] = biological target: focal adhesion kinase (mouse (endogenous in mouse lung microvascular ECs)) (UniProt P34152)
[2] = biological target: neuropilin 2 (mouse (endogenous in mouse lung microvascular ECs)) (UniProt O35375)
[3] = biological target: neuropilin 2 (mouse (endogenous in mouse lung microvascular ECs)) (UniProt O35375); remark: listed apart in the source

Sequences of proteins named here, by UniProt entry; tags and fusion partners are left off. Residues count along the entry.
UniProt P34152: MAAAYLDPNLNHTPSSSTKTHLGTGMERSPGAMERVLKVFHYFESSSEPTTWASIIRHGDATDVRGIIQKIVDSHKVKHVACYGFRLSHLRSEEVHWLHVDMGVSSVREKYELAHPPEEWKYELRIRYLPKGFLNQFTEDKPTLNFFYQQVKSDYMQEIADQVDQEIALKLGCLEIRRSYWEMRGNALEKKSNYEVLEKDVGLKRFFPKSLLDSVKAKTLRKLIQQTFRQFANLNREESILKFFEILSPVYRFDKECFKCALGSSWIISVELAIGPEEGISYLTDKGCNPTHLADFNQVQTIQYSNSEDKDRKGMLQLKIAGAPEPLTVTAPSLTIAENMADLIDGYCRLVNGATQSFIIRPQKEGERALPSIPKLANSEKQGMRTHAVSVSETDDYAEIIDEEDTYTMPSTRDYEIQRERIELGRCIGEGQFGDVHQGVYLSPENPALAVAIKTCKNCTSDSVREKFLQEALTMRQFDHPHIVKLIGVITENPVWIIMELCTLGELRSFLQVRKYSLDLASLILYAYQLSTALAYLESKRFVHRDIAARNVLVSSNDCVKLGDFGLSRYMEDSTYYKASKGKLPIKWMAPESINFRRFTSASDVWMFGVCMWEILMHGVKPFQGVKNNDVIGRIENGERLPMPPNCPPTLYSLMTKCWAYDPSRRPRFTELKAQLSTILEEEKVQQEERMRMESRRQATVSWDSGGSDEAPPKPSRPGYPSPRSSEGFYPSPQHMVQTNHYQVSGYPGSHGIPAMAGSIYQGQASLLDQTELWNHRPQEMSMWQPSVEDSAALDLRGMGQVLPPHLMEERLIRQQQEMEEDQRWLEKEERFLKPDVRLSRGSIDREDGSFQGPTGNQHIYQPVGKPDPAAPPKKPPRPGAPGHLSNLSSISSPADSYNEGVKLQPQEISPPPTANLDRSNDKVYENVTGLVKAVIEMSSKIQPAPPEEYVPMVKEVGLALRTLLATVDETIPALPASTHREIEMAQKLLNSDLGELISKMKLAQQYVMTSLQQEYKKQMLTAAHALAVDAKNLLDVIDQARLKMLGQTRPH
UniProt O35375, residues 21-931: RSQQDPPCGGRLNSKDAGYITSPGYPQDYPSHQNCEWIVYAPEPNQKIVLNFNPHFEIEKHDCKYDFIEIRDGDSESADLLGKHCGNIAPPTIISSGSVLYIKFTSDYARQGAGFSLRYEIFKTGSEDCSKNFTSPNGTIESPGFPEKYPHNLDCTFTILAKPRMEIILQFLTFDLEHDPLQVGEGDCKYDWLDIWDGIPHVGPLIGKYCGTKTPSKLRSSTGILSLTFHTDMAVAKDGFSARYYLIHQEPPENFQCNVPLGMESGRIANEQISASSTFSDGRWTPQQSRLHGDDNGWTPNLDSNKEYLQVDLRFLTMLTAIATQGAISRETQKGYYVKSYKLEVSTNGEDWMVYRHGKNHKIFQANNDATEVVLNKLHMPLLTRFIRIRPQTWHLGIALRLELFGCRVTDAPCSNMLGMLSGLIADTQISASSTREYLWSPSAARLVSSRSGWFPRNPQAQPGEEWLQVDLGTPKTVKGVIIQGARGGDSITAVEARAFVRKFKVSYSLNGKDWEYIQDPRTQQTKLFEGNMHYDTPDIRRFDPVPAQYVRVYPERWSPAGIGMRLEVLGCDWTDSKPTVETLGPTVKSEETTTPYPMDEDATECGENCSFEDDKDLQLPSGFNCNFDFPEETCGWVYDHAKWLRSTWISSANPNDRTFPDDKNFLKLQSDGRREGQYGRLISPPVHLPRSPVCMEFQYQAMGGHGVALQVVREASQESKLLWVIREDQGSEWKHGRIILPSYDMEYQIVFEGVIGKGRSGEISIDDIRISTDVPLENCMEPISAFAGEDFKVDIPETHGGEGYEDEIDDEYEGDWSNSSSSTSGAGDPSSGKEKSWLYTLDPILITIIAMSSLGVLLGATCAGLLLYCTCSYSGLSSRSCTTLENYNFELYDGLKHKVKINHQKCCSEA

- binding [1]: binds
- binding [2]: binds
- binding [3]: binds
B1: GTPase-activating protein p120RasGAP (protein, UniProt E9PYG6 1-1038)
chain: MMAAEAGSEEGGPATAGPGGGAATGSSAYSAACRVKLPAALPVAAAPCPGLADADLVAALGGGAASGSGFLGTGPVAGVLGGAALTGSAAAGVAGAAAAGPAGDVAFTKGTLSLPAETLGPGGGFPPLPPPPQLPPLGSGLGTVDEGDSLDGPEYEEEEVAIPLTAPPTNQWYHGKLDRTIAEERLRQAGKSGSYLIRESDRRPGSFVLSFLSQTNVVNHFRIIAMCGDYYIGGRRFSSLSDLIGYYSHVSCLLKGEKLLYPVAPPEPVEDRRRVRAILPYTKVPDTDEISFLKGDMFIVHNELEDGWMWVTNLRTDEQGLIVEDLVEEVGREEDPHEGKIWFHGKISKQEAYNLLMTVGQVCSFLVRPSDNTPGDYSLYFRTNENIQRFKICPTPNNQFMMGGRYYNSIGDIIDHYRKEQIVEGYYLKEPVPMQDQGQVLNDTVDGKEIYNTIRRKTKDAFYKNIVKKGYLLKKGKGKRWKNLYFILEGSDAQLIYFESEKRATKPKGLIDLSVCSVYVVHDSLFGRPNCFQIVVQHFSEEHYIFYFAGETPEQAEDWMKGLQAFCSLRKSSPGTSNKRLRQVSSLVLHIEEAHKLPVKHFTNPYCNIYLNSVQVAKTHAREGQNPVWSEEFVFDDLPPDINRFEITLSNKTKKSKDPDILFMRCQLSRLQKGHATDEWFLLSSHIPLKGIEPGSLRVRARYSMEKIMPEEEYSEFKELILQKELHVVYALSHVCGQDRTLLASILLKIFLHEKLESLLLCTLNDREISMEDEATTLFRATTLASTLMEQYMKATATQFVHHALKDSILKIMESKQSCELSPSKLEKNEDVNTNLAHLLSILSELVEKIFMASEILPPTLRYIYGCLQKSVQHKWPTNNTMRTRVVSGFVFLRLICPAILNPRMFNIISDSPSPIAARTLTLVAKSVQNLANLVEFGAKEPYMEGVNPFIKSNKHRMIMFLDELGNVPELPDTTEHSRTDLSRDLAALHEICVAHSDELRTLSNERGVQQHVLKKLLAITELLQQKQNQYTKTNDIR

— paper doi:10.1101/2023.11.28.568967
